Laboratory results: PMC11193767

Amino acid sequences for entries named in this document (tags omitted).
UniProt Q8IWT6: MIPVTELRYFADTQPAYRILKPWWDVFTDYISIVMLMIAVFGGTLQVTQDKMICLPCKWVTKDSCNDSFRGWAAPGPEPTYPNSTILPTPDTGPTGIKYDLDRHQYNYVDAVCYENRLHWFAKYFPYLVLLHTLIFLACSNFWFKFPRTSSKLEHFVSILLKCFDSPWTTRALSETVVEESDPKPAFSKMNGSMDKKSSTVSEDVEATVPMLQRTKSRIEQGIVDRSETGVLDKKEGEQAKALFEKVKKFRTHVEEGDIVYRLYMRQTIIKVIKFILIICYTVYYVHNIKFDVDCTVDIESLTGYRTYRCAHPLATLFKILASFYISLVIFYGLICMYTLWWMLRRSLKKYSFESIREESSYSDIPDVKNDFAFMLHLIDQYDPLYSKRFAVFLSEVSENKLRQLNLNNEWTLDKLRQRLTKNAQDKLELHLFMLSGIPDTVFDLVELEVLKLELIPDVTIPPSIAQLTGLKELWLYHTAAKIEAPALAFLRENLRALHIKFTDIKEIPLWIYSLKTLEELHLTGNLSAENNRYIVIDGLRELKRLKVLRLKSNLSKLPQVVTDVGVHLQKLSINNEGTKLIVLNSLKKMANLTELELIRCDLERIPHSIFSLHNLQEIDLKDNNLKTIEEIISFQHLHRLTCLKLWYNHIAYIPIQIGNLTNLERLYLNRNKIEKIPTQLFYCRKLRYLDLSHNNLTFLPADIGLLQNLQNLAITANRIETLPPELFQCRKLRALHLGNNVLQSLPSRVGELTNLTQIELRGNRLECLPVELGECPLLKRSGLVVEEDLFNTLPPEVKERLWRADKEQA

B1: Ras-related protein Rab-23 (protein, UniProt Q9ULC3 1-237)
chain: MLEEDMEVAIKMVVVGNGAVGKSSMIQRYCKGIFTKDYKKTIGVDFLERQIQVNDEDVRLMLWDTAGQEEFDAITKAYYRGAQACVLVFSTTDRESFEAVSSWREKVVAEVGDIPTVLVQNKIDLLDDSCIKNEEAEALAKRLKLRFYRTSVKEDLNVNEVFKYLAEKYLQKLKQQIAEDPELTHSSSNKIGVFNTSGGSHSGQNSGTLNGGDVINLRPNKQRTKKNRNPFSSCSIP
B2: Prolactin regulatory element-binding protein (protein, UniProt Q9HCU5 1-417)
chain: MGRRRAPELYRAPFPLYALQVDPSTGLLIAAGGGGAAKTGIKNGVHFLQLELINGRLSASLLHSHDTETRATMNLALAGDILAAGQDAHCQLLRFQAHQQQGNKAEKAGSKEQGPRQRKGAAPAEKKCGAETQHEGLELRVENLQAVQTDFSSDPLQKVVCFNHDNTLLATGGTDGYVRVWKVPSLEKVLEFKAHEGEIEDLALGPDGKLVTVGRDLKASVWQKDQLVTQLHWQENGPTFSSTPYRYQACRFGQVPDQPAGLRLFTVQIPHKRLRQPPPCYLTAWDGSNFLPLRTKSCGHEVVSCLDVSESGTFLGLGTVTGSVAIYIAFSLQCLYYVREAHGIVVTDVAFLPEKGRGPELLGSHETALFSVAVDSRCQLHLLPSRRSVPVWLLLLLCVGLIIVTILLLQSAFPGFL
B3: Protein transport protein Sec24B (protein, UniProt O95487-3 1-1298)
chain: MSAPAGSSHPAASARIPPKFGGAAVSGAAAPAGPGAGPAPHQQNETGFHHVAQASLELLDPSNLPASASQIAGSTGPAQNQMQVPSGYGLHHQNYIAPSGHYSQGPGKMTSLPLDTQCGDYYSALYTVPTQNVTPNTVNQQPGAQQLYSRGPPAPHIVGSTLGSFQGAASSASHLHTSASQPYSSFVNHYNSPAMYSASSSVASQGFPSTCGHYAMSTVSNAAYPSVSYPSLPAGDTYGQMFTSQNAPTVRPVKDNSFSGQNTAISHPSPLPPLPSQQHHQQQSLSGYSTLTWSSPGLPSTQDNLIRNHTGSLAVANNNPTITVADSLSCPVMQNVQPPKSSPVVSTVLSGSSGSSSTRTPPTANHPVEPVTSVTQPSELLQQKGVQYGEYVNNQASSAPTPLSSTSDDEEEEEEDEEAGVDSSSTTSSASPMPNSYDALEGGSYPDMLSSSASSPAPDPAPEPDPASAPAPASAPAPVVPQPSKMAKPFGYGYPTLQPGYQNATAPLISGVQPSNPVYSGFQQYPQYPGVNQLSSSIGGLSLQSSPQPESLRPVNLTQERNILPMTPVWAPVPNLNADLKKLNCSPDSFRCTLTNIPQTQALLNKAKLPLGLLLHPFRDLTQLPVITSNTIVRCRSCRTYINPFVSFIDQRRWKCNLCYRVNDVPEEFMYNPLTRSYGEPHKRPEVQNSTVEFIASSDYMLRPPQPAVYLFVLDVSHNAVEAGYLTILCQSLLENLDKLPGDSRTRIGFMTFDSTIHFYNLQEGLSQPQMLIVSDIDDVFLPTPDSLLVNLYESKELIKDLLNALPNMFTNTRETHSALGPALQAAFKLMSPTGGRVSVFQTQLPSLGAGLLQSREDPNQRSSTKVVQHLGPATDFYKKLALDCSGQQTAVDLFLLSSQYSDLASLACMSKYSAGCIYYYPSFHYTHNPSQAEKLQKDLKRYLTRKIGFEAVMRIRCTKGLSMHTFHGNFFVRSTDLLSLANINPDAGFAVQLSIEESLTDTSLVCFQTALLYTSSKGERRIRVHTLCLPVVSSLADVYAGVDVQAAICLLANMAVDRSVSSSLSDARDALVNAVVDSLSAYGSTVSNLQHSALMAPSSLKLFPLYVLALLKQKAFRTGTSTRLDDRVYAMCQIKSQPLVHLMKMIHPNLYRIDRLTDEGAVHVNDRIVPQPPLQKLSAEKLTREGAFLMDCGSVFYIWVGKGCDNNFIEDVLGYTNFASIPQKMTHLPELDTLSSERARSFITWLRDSRPLSPILHIVKDESPAKAEFFQHLIEDRTEAAFSYYEFLLHVQQQICK
B4: PH and SEC7 domain-containing protein 3 (protein, UniProt Q9NYI0-2 1-1047)
chain: MEGRSAAAETFVWVNNASAHSQSVAKAKYEFLFGRSEGKAPDTSDHGGSTLLPPNVTNEFPEYGTMEEGGEGLRASLEFDGEALPCHPQEQQGVQPLTGCHSGLDSVTEGPKDVREAPSQSHLKEQSLQPIDSLISALKATEARIISGTLQATKVLDQDAVSSFSVQQVEKELDTASRKTQRVNKTLPAGQKNLPEIPLSAEVTTEESFYLSIQKDLTALLTGDTQAEISQIMNNGRKGAVCVQEPSCPLASLGSSAVTCHSAGSVGFLKEQRSALGREHPGGCDRSSSMGRPGRVKHVEFQGVEILWTGGDKRETQHPIDFETSLQRTASPDSKESSKVPRHLISSAGLCNSSSLTENVWDESWKAPSERPGTSSGTFSPVRLDESGEDEVFLQENKQHLEKTPKPERDRERISEQEEHVKGEDEDILGPGYTEDSTDVYSSQFETILDNTSLYYSAESLETLYSEPDSYFSFEMPLTPMIQQRIKEGGQFLERTSGGGHQDILSVSADGGIVMGYSSGVTNGLNDASDSIYTKGTPEIAFWGSNAGVKTTRLEAHSEMGSTEILEKETPENLSNGTSSNVEAAKRLAKRLYQLDRFKRSDVAKHLGKNNEFSKLVAEEYLKFFDFTGMTLDQSLRYFFKAFSLVGETQERERVLIHFSNRYFYCNPDTIASQDGVHCLTCAIMLLNTDLHGHNIGKKMTCQEFIANLQGVNEGVDFSKDLLKALYNSIKNEKLEWAVDDEEKKKSPSESTEEKANGTHPKTISRIGSTTNPFLDIPHDPNAAVYKSGFLARKIHADMDGKKTPRGKRGWKTFYAVLKGTVLYLQKDEYKPEKALSEEDLKNAVSVHHALASKATDYEKKPNVFKLKTADWRVLLFQTQSPEEMQGWINKINCVAAVFSAPPFPAAIGSQKKFSRPLLPATTTKLSQEEQLKSHESKLKQITTELAEHRSYPPDKKVKAKDVDEYKLKDHYLEFEKTRYEMYVSILKEGGKELLSNDESEAAGLKKSHSSPSLNPDTSPITAKVKRNVSERKDHRPETPSIKQKVT
B5: Ankycorbin (protein, UniProt Q9P0K7-2 1-983)
chain: MQPTYLPWLSAKEKKTNEWNKNDDRLLQAVENGDAEKVASLLGKKGASATKHDSEGKTAFHLAAAKGHVECLRVMITHGVDVTAQDTTGHSALHLAAKNSHHECIRKLLQSKCPAESVDSSGKTALHYAAAQGCLQAVQILCEHKSPINLKDLDGNIPLLLAVQNGHSEICHFLLDHGADVNSRNKSGRTALMLACEIGSSNAVEALIKKGADLNLVDSLGYNALHYSKLSENAGIQSLLLSKISQDADLKTPTKPKQHDQVSKISSERSGTPKKRKAPPPPISPTQLSDVSSPRSITSTPLSGKESVFFAEPPFKAEISSIRENKDRLSDSTTGADSLLDISSEADQQDLLSLLQAKVASLTLHNKELQDKLQAKSPKEAEADLSFDSYHSTQTDLGPSLGKPGETSPPDSKSSPSVLIHSLGKSTTDNDVRIQQLQEILQDLQKRLESSEAERKQLQVELQSRRAELVCLNNTEISENSSDLSQKLKETQSKYEEAMKEVLSVQKQMKLGLVSPESMDNYSHFHELRVTEEEINVLKQDLQNALEESERNKEKVRELEEKLVEREKGTVIKPPVEEYEEMKSSYCSVIENMNKEKAFLFEKYQEAQEEIMKLKDTLKSQMTQEASDEAEDMKEAMNRMIDELNKQVSELSQLYKEAQAELEDYRKRKSLEDVTAEYIHKAEHEKLMQLTNVSRAKAEDALSEMKSQYSKVLNELTQLKQLVDAQKENSVSITEHLQVITTLRTAAKEMEEKISNLKEHLASKEVEVAKLEKQLLEEKAAMTDAMVPRSSYEKLQSSLESEVSVLASKLKESVKEKEKVHSEVVQIRSEVSQVKREKENIQTLLKSKEQEVNELLQKFQQAQEELAEMKRYAESSSKLEEDKDKKINEMSKEVTKLKEALNSLSQLSYSTSSSKRQSQQLEALQQQVKQLQNQLAECKKQHQEVISVYRMHLLYAVQGQMDEDVQKVLKQILTMCKNQSQKK
B6: Tyrosine-protein phosphatase non-receptor type 1 (protein, UniProt P18031 1-435)
chain: MEMEKEFEQIDKSGSWAAIYQDIRHEASDFPCRVAKLPKNKNRNRYRDVSPFDHSRIKLHQEDNDYINASLIKMEEAQRSYILTQGPLPNTCGHFWEMVWEQKSRGVVMLNRVMEKGSLKCAQYWPQKEEKEMIFEDTNLKLTLISEDIKSYYTVRQLELENLTTQETREILHFHYTTWPDFGVPESPASFLNFLFKVRESGSLSPEHGPVVVHCSAGIGRSGTFCLADTCLLLMDKRKDPSSVDIKKVLLEMRKFRMGLIQTADQLRFSYLAVIEGAKFIMGDSSVQDQWKELSHEDLEPPPEHIPPPPRPPKRILEPHNGKCREFFPNHQWVKEETQEDKDCPIKEEKGSPLNAAPYGIESMSQDTEVRSRVVGGSLRGAQAASPAKGEPSLPEKDEDHALSYWKPFLVNMCVATVLTAGAYLCYRFLFNSNT
B7: Ras GTPase-activating protein nGAP (protein, UniProt Q9UJF2-2 1-1280)
chain: MELSPSSGGAAEALSWPEMFPALESDSPLPPEDLDAVVPVSGAVAGGMLDRILLESVCQQQSWVRVYDVKGPPTHRLSCGQSPYTETTTWERKYCILTDSQLVLLNKEKEIPVEGGQEQQTDSTKGRCLRRTVSVPSEGQFPEYPPEGATKLEVPAERSPRRRSISGTSTSEKPNSMDTANTSPFKVPGFFSKRLKGSIKRTKSQSKLDRNTSFRLPSLRSTDDRSRGLPKLKESRSHESLLSPCSTVECLDLGRGEPVSVKPLHSSILGQDFCFEVTYLSGSKCFSCNSASERDKWMENLRRTVQPNKDNCRRAENVLRLWIIEAKDLAPKKKYFCELCLDDTLFARTTSKTKADNIFWGEHFEFFSLPPLHSITVHIYKDVEKKKKKDKNNYVGLVNIPTASVTGRQFVEKWYPVSTPTPNKGKTGGPSIRIKSRFQTITILPMEQYKEFAEFVTSNYTMLCSVLEPVISVRNKEELACALVHILQSTGRAKDFLTDLVMSEVDRCGEHDVLIFRENTIATKSIEEYLKLVGQQYLHDALGEFIKALYESDENCEVDPSKCSSSELIDHQSNLKMCCELAFCKIINSYCVFPRELKEVFASWKQQCLNRGKQDISERLISASLFLRFLCPAIMSPSLFNLMQEYPDDRTSRTLTLIAKVIQNLANFAKFGNKEEYMAFMNDFLEHEWGGMKRFLLEISNPDTISNTPGFDGYIDLGRELSVLHSLLWEVVSQLDKATVAKLGPLPRVLADITKSLTNPTPIQQQLRRFTEHNSSPNVSGSLSSGLQKIFEDPTDSDLHKLKSPSQDNTDSYFRGKTLLLVQQASSQSMTYSEKDERESSLPNGRSVSLMDLQDTHAAQVEHASVMLDVPIRLTGSQLSITQVASIKQLRETQSTPQSAPQVRRPLHPALNQPGGLQPLSFQNPVYHLNNPIPAMPKASIDSSLENLSTASSRSQSNSEDFKLSGPSNSSMEDFTKRSTQSEDFSRRHTVPDRHIPLALPRQNSTGQAQIRKVDQGGLGARAKAPPSLPHSASLRSTGSMSVVSAALVAEPVQNGSRSRQQSSSSRESPVPKVRAIQRQQTQQVQSPVDSATMSPVERTAAWVLNNGQYEEDVEETEQNLDEAKHAEKYEQEITKLKERLRVSSRRLEEYERRLLVQEQQMQKLLLEYKARLEDSEERLRRQQEEKDSQMKSIISRLMAVEEELKKDHAEMQAVIDAKQKIIDAQEKRIVSLDSANTRLMSALTQVKERYSMQVRNGISPTNPTKLSITENGEFKNSSC

target: LRRC8A-BirA*-HA fusion protein (human) (UniProt Q8IWT6); assay: proximity labelling; BioID: HEK293 cells stably expressing LRRC8A-BirA*-HA (two clones), 50 uM biotin 24 h, RIPA lysis, streptavidin bead pull-down of biotinylated proteins, TMT labelling and LC-MS/MS; hits: FDR <= 0.05 and fold change >= 2 against the no-biotin control

binding, binds:
B1
B2
B3
B4
B5
B6
B7

Results are given in words; binding and its absence hold for the method and conditions named. In cells and extracts the contact can be indirect. Here binding means that the protein was enriched with, or labelled near, the bait; the list need not be complete.
